Results from PubChem BioAssay AID504465 (National Center for Advancing Translational Sciences (NCATS), 2011).
Out of some 2,100 compounds screened, about 210 (10%) were called active. Inconclusive results, whose numbers are uncertain, are shown with a selection of clear calls. Calls come from the whole dose curve; as a rule, active = well fitted inhibition curve with a large enough effect; inconclusive = small, poorly fitted or top-dose-only effect, or effect the other way; inactive = no such curve, though single readings can be large or run the other way. A potency beside an inconclusive call is a rough fit, not a confirmed value.

assay: IN Cell qHTS Assay for Inhibitors of the mTORC1 Signaling Pathway in MEF (Tsc2-/-, p53-/-) Cells: Sytravon; conditions: phospho-rpS6 immunofluorescence, 24 h; activity, negative = inhibition: at 38.3 µM (top of the series); note: nearly all actives have a fitted effect of over 60% in size
Text: NIH Molecular Libraries Probe Production Centers Network [MLPCN] NIH Chemical Genomics Center [NCGC] MLPCN Grant: NS059428-01 Assay Submitter (PI): Blenis, John; Hoffman, Greg; Harvard University NCGC Assay Overview: Thee mammalian target of rapamycin (mTOR) is an intracellular serine/threonine kinase Aberrant regulation of mTOR signaling plays a causative role in a number of human diseases, including cancer, benign tumors such as lymphangioleiomyomatosis (LAM) and Tuberous Sclerosis Complex (TSC), and metabolic diseases such as diabetes and obesity. This project aims to identify inhibitors of ribosomal protein S6 (rpS6) phosphorylation. The phosphorylation of rpS6 is a key event downstream of mTOR activation. The assay uses a phospho-specific antibody of phospho-rpS6 to detect inhibitors of mTOR activation. Mutations in the Tsc1 and Tsc2 genes are the underlying genetic lesions responsible for TSC, causing constitutive activation of the mTORC1 pathway and leading to profound effects on cell metabolism. Aberrant metabolism in cancer has recently received significant attention as a target to develop therapeutic agents in the treatment of cancer1. As Tsc2-/- cells have lost the ability to respond to energy and growth factor deprivation, these cells are unable to properly down regulate cellular biosynthetic processes in response to metabolic stress, and are thus extremely sensitive to glucose deprivation-induced death.2 A central goal of this project is to explore the unique cell survival and metabolic properties of cells with Tsc1 or Tsc2 by screening for compounds that selectively target the Tsc2-/- MEFs by screening both Tsc2-/- and WT MEF cell lines. We hope to better understand these aspects of TSC physiology in order to exploit them for therapeutic benefit.
NCGC IN Cell Assay Protocol: For quantitative high throughput analysis of mTORC1 signaling, we developed a cell-based assay for immuno-fluorescence based detection of rpS6 phosphorylation on the Acumen Explorer that will be used a platform for the primary small molecule screen. Mouse embryonic fibroblasts (MEFs) are cultured in 1536-well plates using DMEM + 10% FBS. Twenty-four hrs after plating, test compounds (solubilized in DMSO) are delivered and incubated with the cells for 24 hrs at 37 degree Celsius. Following the incubation, media with compound is aspirated and the cells are fixed in 4% paraformaldehyde (PFA) containing PBS + 0.2% TX-100. Next, PFA is aspirated, cells are washed two times with PBS plus 0.2% TX-100 and the cells are blocked for 1 hr at room temperature (blocking buffer: LiCOR Blocking Buffer plus 0.2% TX-100). This is followed by aspiration and staining with Alexa-488 conjugated-phospho-rpS6 Ser235/236 antibody for 2 hours at room temperature (Cell Signaling Technology # 4803, 1:50 dilution in blocking buffer). Cells are washed two times with PBS plus 0.2% TX-100, and stained with 10 uM propidium iodide (PI) for 20-25 minutes for cell number measurement (1:500 dilution of Hoescht staining is also added for IN Cell imaging). Active wells which are selected (based on Acumen results) are imaged on the IN Cell 1000 (GE Healthcare) using the D360/40X and HQ480/40X excitation filters for the Hoechst and Alexa-488 cytoplasmic stains, respectively. The fluorescence emission filters used were HQ460/40M and HQ535/50M for the Hoechst and Alexa-488 cytoplasmic stains, respectively. The normalized phospho-S6 staining is calculated as the ratio of […] for the single concentration rapamycin control (7.5 nM) and DMSO columns. […] Inhibition of the pathway is defined based on the normalized phospho-S6 intensity in rapamycin treated cells. Each treatment is reported as the % positive cells in the well, where thresholds are defined by selecting wells with the highest and lowest signal and differentiating between the % non-active and % active populations. […]
Potency is the fitted concentration of half-maximal effect.

Row | Compound | Potency | activity, negative = inhibition
1 | COc1cccc(OCCn2c(-c3ccc(Cl)cc3)nc3ccccc3c2=O)c1 | inconclusive: 26.1 µM [falling, single point] | 
2 | Cc1c(Cl)cccc1-c1ccc(C(=O)Nc2ccc3oc(-c4cccnc4)nc3c2)o1 | inconclusive: 23.3 µM [falling, single point] | 
3 | COc1cc(C(=O)N(CCCN(C)C)c2nc3c(OC)cccc3s2)cc(OC)c1OC | inconclusive: 26.1 µM [falling, single point] | 
4 | COc1ccccc1-c1cc(C(=O)Nc2c(C)nn(Cc3ccc(Cl)cc3)c2C)no1 | inconclusive: 3.69 µM [falling, full curve, poor fit] | 
5 | CC(=O)N1CCc2cc(CNS(=O)(=O)c3cccs3)ccc21 |  | inactive: 21.8%
6 | Cc1cccc(NC(c2cccc(Cl)c2)c2ccc3cccnc3c2O)n1 (stereo unspecified) | inconclusive: 0.0826 µM [activator, full curve, poor fit] | 
7 | CCC1=Nc2cc(C(=O)NCCc3ccccc3)ccc2Sc2ccc(Cl)cc21 | inconclusive: 0.0521 µM [falling, full curve, poor fit] | 
8 | COc1ccc(Nc2cc(C(=O)NCCCN(C)Cc3ccccc3)c3ccccc3n2)cc1OC |  | inactive: 0%
9 | N=c1n(CCO)c2ccccc2n1CCOc1ccc(F)cc1 | inconclusive: 13.1 µM [falling, single point] | 
10 | Cc1cc(C)cc(OCCOCCn2c(-c3ccc(Cl)cc3)nc3ccccc3c2=O)c1 | inconclusive: 26.1 µM [falling, single point] | 
11 | COc1ccc(N2CCN(CC(O)COc3ccc(C)c(C)c3)CC2)cc1 (stereo unspecified) |  | inactive: 0%
12 | c1ccc(CNc2ncnc3[nH]ncc23)cc1 |  | inactive: 6.25%
13 | COc1ccccc1Nc1c2c(nc3ccc(NC(=O)/C=C/c4cccc(OC)c4OC)cc13)CCCC2 | inconclusive: 1.65 µM [falling, full curve, poor fit] | 
14 | Cc1cc(C)cc(OCC(=O)NCC(c2ccc(Cl)cc2)N2CCCCC2)c1 (stereo unspecified) |  | inactive: -24.5%
15 | Cc1ccc(-c2nc3scc(CCNC(=O)c4cccc(Br)c4)n3n2)cc1 |  | inactive: 0%
16 | COc1ccc(S(=O)(=O)N(Cc2nc(-c3ccc(C)cc3)no2)C2CCCCC2)cc1 | inconclusive: 14.7 µM [falling, single point] | 
17 | CCOc1ccc(N(Cc2ccccc2)C(=O)c2nc(S(C)(=O)=O)ncc2Cl)cc1 | inconclusive: 0.521 µM [falling, full curve, poor fit] | 
18 | CC(=O)c1c(C)oc2c1cc(NS(=O)(=O)c1ccc(Cl)c(C)c1)c1ccccc12 | inconclusive: 26.1 µM [falling, single point] | 
19 | O=S(=O)(NCc1nc2cccnc2n1Cc1ccccc1Cl)c1ccc(F)c(Cl)c1 | inconclusive: 23.3 µM [falling, single point] | 
20 | COc1ccc2c(CNCCc3cccs3)c(C(=O)O)n(Cc3ccc(F)cc3Cl)c2c1 | inconclusive: 14.7 µM [falling, single point] | 
21 | Cc1ccc(SCc2nc(-c3ccc(C(=O)NCCc4ccc(Cl)cc4)cc3)oc2C)cc1 | inconclusive: 3.69 µM [falling, partial curve, poor fit] | 
22 | O=C(CSCc1ccc(F)cc1)N1CCc2c([nH]c3ccccc23)C1c1ccc(Cl)cc1 (stereo unspecified) |  | inactive: -19.1%

An excerpt of these results, with tabs:
Row	Compound	Potency	activity, negative = inhibition
19	O=S(=O)(NCc1nc2cccnc2n1Cc1ccccc1Cl)c1ccc(F)c(Cl)c1	inconclusive: 23.3 µM [falling, single point]	
20	COc1ccc2c(CNCCc3cccs3)c(C(=O)O)n(Cc3ccc(F)cc3Cl)c2c1	inconclusive: 14.7 µM [falling, single point]	

(listing goes on)

Row | Compound | Potency | activity, negative = inhibition
23 | CCNS(=O)(=O)c1ccc(NC(=O)CSc2nc(-c3ccco3)cc(C(F)(F)F)n2)cc1 | active: 0.233 µM | 
24 | COc1ccc(-n2ncc3c(NCCCOC(C)C)ncnc32)cc1 |  | inactive: -3.87%
25 | CCOC(=O)c1ccc(N2C(=O)c3[nH]nc(-c4ccccc4)c3C2c2ccc(CC)cc2)cc1 (stereo unspecified) | inconclusive: 23.3 µM [falling, single point] | 
26 | Cc1ccc(Cn2c(C(=O)O)c(CNCc3ccc(OC(C)C)cc3)c3ccc(C)cc32)cc1 | inconclusive: 16.5 µM [falling, single point] | 
27 | Cc1ccc(-n2ncc(C(=O)NCCN3CCCC3)c2C2CCN(C(=O)OC(C)(C)C)CC2)cc1C | inconclusive: 23.3 µM [falling, partial curve, poor fit] | 
28 | COc1cccc(-c2ccc3c(N)c(C(=O)Nc4cc(C(F)(F)F)ccc4OC)sc3n2)c1 | inconclusive: 0.293 µM [falling, partial curve, poor fit] | 
29 | Cc1ccc(C(=O)c2cn(CC(=O)NCc3ccccc3Cl)c3nc(C)ccc3c2=O)cc1 |  | inactive: 1.08%
30 | COc1ccc(-c2cn3c(n2)sc2cc(C(=O)Nc4ccc(C)c(C)c4)ccc23)cc1 | inconclusive: 1.31 µM [falling, full curve, poor fit] | 
31 | Cc1ccc(CN(Cc2ccco2)C(=O)COc2ccccc2C)cc1 | inconclusive: 26.1 µM [falling, partial curve, poor fit] | 
32 | Cc1oc2ccc(O)c(CN(C)Cc3ccccc3)c2c1C(=O)Nc1ccccc1 |  | inactive: -8.08%
33 | Cc1ccc(C(=O)CC2(O)C(=O)N(Cc3ccccc3F)c3ccccc32)cc1 (stereo unspecified) | inconclusive: 2.61 µM [falling, single point] | 
34 | CCc1nnc(NC(=O)c2nc(S(=O)(=O)Cc3ccc(C)cc3)ncc2Cl)s1 | active: 20.7 µM | 
35 | CCC1(C)CC(=O)c2c(ccc3oc(C(=O)NCc4ccccc4)c(C)c23)O1 (stereo unspecified) |  | inactive: -8.68%
36 | CN1CCN(C2(CNC(=O)c3ccc(C(C)(C)C)cc3)CCCCC2)CC1 | inconclusive: 23.3 µM [falling, single point] | 
37 | CCOc1ccc(C(=O)/C=C/c2cn(CC(O)CN3CCCCCC3)c3ccccc23)cc1 (stereo unspecified) | inconclusive: 23.3 µM [falling, single point] | 
38 | CCC(=O)N1CCc2cc(Br)cc(S(=O)(=O)Nc3ccccc3C(=O)OC)c21 | inconclusive: 0.0037 µM [activator, full curve, poor fit] | 
39 | Cc1ccc(-c2nnc(Nc3cccc(Cl)c3)c3ccccc23)cc1S(=O)(=O)N1CCN(C)CC1 | active: 9.27 µM | 
40 | Cn1c(/C(C#N)=C/c2ccccc2Br)nc2ccccc21 | inconclusive: 23.3 µM [falling, single point] | 
41 | CC1=C(C(=O)Nc2ccccc2C)C(c2cccs2)n2nc(SCc3ccccc3)nc2N1 (stereo unspecified) |  | inactive: -100%
42 | CCN(CC)c1cc(C)c2cc(NC(=O)/C=C/c3cc(OC)c(OC)c(OC)c3)ccc2n1 | inconclusive: 10.4 µM [falling, partial curve, poor fit] | 
43 | CN1CCN(C(=O)Nc2cccc(Cl)c2)c2cccnc21 | inconclusive: 0.464 µM [falling, full curve, poor fit] | 
44 | COc1ccccc1Nc1c2c(nc3ccc(NC(=O)c4cccc(F)c4)cc13)CCCC2 | inconclusive: 0.0465 µM [falling, full curve, poor fit] | 

Row | Compound | Potency | activity, negative = inhibition
45 | CCc1ccc(NC(=O)CCCc2nc(-c3ccco3)no2)cc1 | inconclusive: 0.521 µM [falling, full curve, poor fit] | 
46 | COc1ccc(CNC(=O)c2c(Nc3ccccc3C)sc(C(=O)c3ccccc3)c2N)cc1 |  | inactive: -15.4%
47 | CCc1ccc2c(c1)NC(c1cccnc1)=NC(c1ccc(C(C)(C)C)cc1)=N2 | inconclusive: 20.7 µM [falling, partial curve, poor fit] | 
48 | COc1cc(CN(C(=O)COc2ccc(Cl)c(C)c2)c2ccccn2)cc(OC)c1OC | inconclusive: 2.33 µM [falling, partial curve, poor fit] | 
49 | COc1ccc(CCNC(=O)CCCn2nc(C)c3sc4ccccc4c3c2=O)cc1OC | inconclusive: 6.56 µM [falling, partial curve, poor fit] | 
50 | O=C(NCCCN1CCN(c2ccccc2F)CC1)c1nnc(Cc2ccc(Cl)cc2Cl)o1 |  | inactive: -19.5%
51 | Cc1cccc(-n2nnnc2S(C)(=O)=O)c1 | active: 1.47 µM | 
52 | CCC(=O)Nc1nnc(S(=O)(=O)N2CCc3ccccc32)s1 | inconclusive: 16.5 µM [falling, single point] | 
53 | COc1ccc(NC(=O)C2CCCN(c3nnc(C)c4c(C)n(-c5ccccc5)nc34)C2)cc1Cl (stereo unspecified) | inconclusive: 26.1 µM [falling, single point] | 
54 | CCN(Cc1ccccc1)Cc1c(O)ccc2oc(C)c(C(=O)Nc3ccc(C)cc3C)c12 |  | inactive: -5.82%
55 | COc1ccc(-c2cc(C(=O)N3CCN(c4ccccc4)CC3)no2)cc1 | inconclusive: 0.0041 µM [activator, full curve, poor fit] | 
56 | CCc1c(C)nc2nncn2c1NCc1ccccc1 | inconclusive: 23.3 µM [falling, single point] | 
57 | O=S1(=O)c2ccccc2N(Cc2ccc(Cl)cc2)c2ccccc21 | inconclusive: 5.21 µM [falling, single point] | 
58 | CCCCOc1cccc(C(=O)N2CCN(CCc3ccncc3)CC2)c1 |  | inactive: -60.4%
59 | Cc1cccc(NC(=O)Cn2c(=O)c3cccn3c3ccccc32)c1C | inconclusive: 26.1 µM [falling, partial curve, poor fit] | 
60 | COc1cc(NS(=O)(=O)c2cc(Br)cc3c2N(C(=O)C2CC2)CC3)cc(OC)c1 |  | inactive: 0%
61 | COc1ccc(-c2ccc(CCC(=O)O)n2-c2cc(Cl)ccc2O)cc1 |  | inactive: -13.7%
62 | Cc1ccc(-n2ncc(C(=O)NCCN3CCc4ccccc4C3)c2C2CCNCC2)cc1C | inconclusive: 9.27 µM [falling, partial curve] | 
63 | CCN1CCC(N(Cc2ccc(F)cc2)C(=O)Nc2ccc(C)c(F)c2)CC1 | inconclusive: 14.7 µM [falling, single point] | 
64 | Cc1ccccc1-n1c(SCC(=O)c2ccccc2)nnc1-c1ccc(F)cc1 | inconclusive: 18.5 µM [falling, partial curve] | 
65 | O=C1CC(c2ccccc2)Cc2[nH]c(=O)c(-c3nc(-c4cccc(Cl)c4)cs3)cc21 (stereo unspecified) |  | inactive: -28%
66 | CCCCN(C)CCNC(=O)Cn1ncc2c3ccccc3n(CCC)c2c1=O |  | inactive: -26.3%

Part of the list above in order of formula weight, rising.
Row | Compound | Potency | activity, negative = inhibition
47 | CCc1ccc2c(c1)NC(c1cccnc1)=NC(c1ccc(C(C)(C)C)cc1)=N2 | inconclusive: 20.7 µM [falling, partial curve, poor fit] | 
16 | COc1ccc(S(=O)(=O)N(Cc2nc(-c3ccc(C)cc3)no2)C2CCCCC2)cc1 | inconclusive: 14.7 µM [falling, single point] | 
42 | CCN(CC)c1cc(C)c2cc(NC(=O)/C=C/c3cc(OC)c(OC)c(OC)c3)ccc2n1 | inconclusive: 10.4 µM [falling, partial curve, poor fit] | 
